Results on 41 compounds are retold here after PubChem BioAssay AID493014 (National Center for Advancing Translational Sciences (NCATS), 2011).

SMILES strings stand for the structures. The list shows a part of the results. Shown are side measurements of this screen, not its main read-out; they come without a call. The list favours compounds with an active or inconclusive main result. Words in brackets tell the shape of the fitted curve; partial curves, single points and poor fits give uncertain potencies.

The nature of the experiment: qHTS Assay to Find Inhibitors of Chronic Active B-Cell Receptor Signaling. As to conditions: ABC-DLBCL IkBa-CBG/CBR reporter, luminescence ratio (green luciferase fused to IkBa over red control in TMD8 lymphoma cells), 4 h. In outline:
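TMD8 ABC-DLBCL cells carrying doxycycline-inducible green luciferase fused to IkappaBalpha plus unfused red luciferase were exposed to compounds (up to 46 uM) for 4 hrs at 37C. Activity came from the overlap-corrected green/red luminescence ratio.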
A general note: In qHTS, concentration-response curves come from the screen itself.

The mark [1] stands for this setting: measured here: CBR red luminescence, cell number.
[2] abbreviates: measured here: IkBa-CBG green luminescence.

By AC50 is commonly meant the concentration giving half of the maximal activity seen.

Turning to `CCCCNC(=O)CSc1nc(CCC)nc2ccccc12`, the AC50 under setting [1] was 0.794 µM [falling, full curve, poor fit].

Regarding `COc1ccc(NC(=O)CSc2cc(C(=O)c3nccn3C)c3ccccc3n2)cc1`, under setting [1], the AC50 is 14.1 µM [falling, single point].

As to `CCN1C(=O)S/C(=C/c2c(OCc3ccc(C(=O)O)cc3)ccc3ccccc23)C1=O`, the AC50 under setting [1] is 23.1 µM [falling, single point].

As to `CCCCn1c(NC(C)=O)c(C#N)c2nc3ccccc3nc21`, the AC50 under setting [1] was 35.5 µM [falling, single point].

Regarding `O=C(O)c1cc(O)ccc1NC(=O)c1cccc2ccccc12`, the half-maximal activity concentration (AC50) under setting [1] is 1.41 µM [falling, full curve].

Regarding `Cc1cccc(CN2CCCC(C(=O)Nc3ccc(-c4cscn4)cc3)C2)c1` (stereo not given), the AC50 under setting [1] was 11.2 µM [falling, partial curve].

In the case of `COc1ccc(CN(CCc2ccccc2)Cc2ccccc2)cc1OC`, the AC50 under setting [1] was 14.1 µM [rising, single point].

For `O=C(Nc1ccc(NC(=O)c2ccco2)nc1)c1ccccn1`, the AC50 under setting [1] is 10 µM [falling, partial curve, poor fit].

As for `COc1ccc(C(=O)NCCn2cc(SCC(=O)NCc3ccco3)c3ccccc32)cc1`, the half-maximal activity concentration (AC50) under setting [1] is 35.5 µM [falling, single point].

Turning to `COc1ccccc1CNC(=O)C1CCC(CNS(=O)(=O)c2ccc(F)cc2)CC1` (stereo not given), under setting [1], the AC50 is 15.8 µM [falling, single point].

On to `CCOC(=O)c1c(-c2ccc(-c3ccccc3)cc2)csc1NC(=O)C1C2CCC(O2)C1C(=O)O` (stereo not given), for which the AC50 reads like this: under setting [1], 15.8 µM [falling, single point]; under setting [2], 17.8 µM [rising, partial curve, poor fit].

As to `Cc1nn(C)c(C(=O)NNC(=S)NCc2ccccc2)c1Cl`, under setting [1], the AC50 is 3.55 µM [rising, partial curve, poor fit].

Take `COc1ccc2ccc(=O)oc2c1CC=C(C)C`: under setting [1], the AC50 is 23.1 µM [rising, partial curve, poor fit].

Regarding `Cc1ccc(-c2ccc(/C=N/n3cnnc3)o2)cc1Cl`, under setting [1], the AC50 is 29.1 µM [rising, single point].

With `COc1ccc(-c2nc(NC(=O)CSCCO)sc2C)cc1`, under setting [1], the half-maximal activity concentration (AC50) is 2.82 µM [falling, full curve].

Turning to `CCN(CC)c1ccc2c(C)cc(=O)oc2c1`, the AC50 under setting [1] was 23.1 µM [rising, single point].

Regarding `COc1ccc(S(=O)(=O)N2CCCC(N(C)CCc3ccccc3)C2)cc1OC` (stereo not given), under setting [1], the AC50 was 12.6 µM [rising, single point].

Regarding `O=C(NC1CCCCCC1)C(=O)NC1CCCC1`, under setting [1], the AC50 is 6.51 µM [falling, single point].

On to `COc1ccc2nc(Nc3nc(-c4ccncc4)cs3)sc2c1`, for which the AC50 under setting [1] was 0.794 µM [rising, full curve, poor fit].

For `Cc1ccccc1C(=O)Nc1ccc2nc3n(c(=O)c2c1)CCC3`, the concentration at half-maximal activity (AC50) under setting [1] is 13 µM [falling, partial curve, poor fit].

Consider `CCOC(=O)c1ccc(-c2c(C(=O)OCC)oc3cc(O)c(CC)cc3c2=O)o1`, for which the AC50 under setting [1] is 2.31 µM [falling, partial curve, poor fit] and the AC50 under setting [2] was 18.4 µM [falling, single point].

For the compound `CCOC(=O)c1c(CN2CCCCC2)n(C)c2cc(Br)c(O)cc12`, the AC50 under setting [1] is 20.6 µM [rising, single point].

Regarding `CC(C)CCNC(=S)Nc1ccc([N+](=O)[O-])cc1`, the half-maximal activity concentration (AC50) is, setting by setting: under setting [1], 1.64 µM [rising, partial curve]; under setting [2], 32.6 µM [rising, partial curve, poor fit].

Regarding `CCOC(=O)c1oc2ccc(CNC3CCCCC3)c(Cl)c2c1C`, the AC50 under setting [1] is 5.17 µM [falling, partial curve, poor fit].

For the compound `CNC(=O)c1cc(C(=O)c2c(Cl)cccc2Cl)c[nH]1`, the AC50 under setting [1] was 4.47 µM [rising, single point].

In the case of `S=C(NC1CCCCC1)N1CCN(c2ncccn2)CC1`, under setting [1], the AC50 is 15.8 µM [rising, single point].

With `COCCCN1C(=O)c2[nH]nc(-c3cc(C)cc(C)c3O)c2C1c1ccc(O)c(OC)c1` (stereo not given), under setting [1], the AC50 was 35.5 µM [falling, single point].

Turning to `CN(C)CC(CCC(CN(C)C)C(O)(c1ccccc1)c1ccccc1)C(O)(c1ccccc1)c1ccccc1` (stereo not given), under setting [1], the AC50 is 7.94 µM [falling, partial curve].

`O=C(CCCc1ccccc1)c1ccc2c(c1)OCCO2`: the half-maximal activity concentration (AC50) under setting [1] was 20.6 µM [falling, partial curve].

`C[C@@H]1CCC(=O)N(CC[C@H](Sc2ccc(Br)cc2)c2ccccc2)CC1`: the AC50 under setting [1] is 20.6 µM [falling, partial curve, poor fit].

For `CCOC(=O)C(=CNc1ccc(Cl)cn1)C(=O)OCC`, under setting [1], the AC50 was 22.4 µM [falling, single point].

Take `Cc1nnc(NC(=O)COc2ccc3c(C)cc(=O)oc3c2)s1`: the AC50 under setting [1] is 20.6 µM [rising, single point].

`Cc1ccc(CNCC(O)(c2ccccc2)c2ccccc2)cc1`: under setting [1], the AC50 was 35.5 µM [falling, single point].

For `Cc1ccsc1/C=N/Nc1nc2ccccc2[nH]1`, the AC50 under setting [1] is 7.31 µM [falling, partial curve].

Turning to `CCCCN(CC)CCCNC(=S)Nc1ccc2nc(N3CCN(C)CC3)cc(C)c2c1`, the half-maximal activity concentration (AC50) under setting [1] is 4.47 µM [falling, full curve].

In the case of `Cc1ccc(/C=C2/SC(=S)N(CCCC(=O)Nc3cc([N+](=O)[O-])ccc3O)C2=O)cc1`, under setting [1], the AC50 is 1 µM [falling, full curve].

Consider `CCOC(=O)c1cc(C)nc(Sc2ccc(C)cc2)c1C#N`, for which the AC50 reads like this: under setting [1], 35.5 µM [rising, single point]; under setting [2], 11.2 µM [falling, partial curve, poor fit].

Turning to `O=C(COc1ccccc1F)NNC(=O)c1cc(Br)ccc1Cl`, the AC50 under setting [1] is 16.4 µM [rising, partial curve, poor fit].

For the compound `CN1CCCC(C#CC(O)(c2ccccc2)c2ccccc2)C1` (stereo not given), the half-maximal activity concentration (AC50) under setting [1] is 35.5 µM [rising, single point].

Consider `O=C(NCC1CCCO1)C1CC(=O)N(c2cccc(Cl)c2)C1` (stereo not given), for which the AC50 under setting [1] was 6.31 µM [rising, partial curve, poor fit].

For the compound `COc1ccc(NC(=O)CC2C(=O)N(c3ccc(Cl)cc3)C(=S)N2CCc2ccncc2)cc1` (stereo not given), the AC50 under setting [1] is 35.5 µM [falling, single point].
